Reference: PubChem BioAssay AID493246 (Drosophila RNAi Screening Center, 2011)
Purpose: 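Genes fly cells need to grow and stay alive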 (primary screen). System: Drosophila Kc and S2R+ cells. Reagent: long dsRNA against Drosophila genes. Read-out: 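Cell number per well after knock-down, printed as raw plate values; calls were based on per-plate z-scores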. Reading the numbers: Kc cell number and S2R+ cell number: higher = more cells remaining. Call rule: 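Active when the per-plate z-score of cell number is 3 or more in the direction of fewer cells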.
The screen tested about 21,000 reagents; this is a random part of those that have a named target and a result. Over the whole deposit, 429 (2%) are marked active. 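Values are raw and not normalised between plates; calls rest on per-plate z-scores that were not deposited.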 The numbers tell different reagents against one gene apart. Names joined by + are all predicted targets of the reagent. No sequences are given here. Not stated in the record: the amount of reagent, the time to read-out.

Depletion of Pits #1 resulted in: Kc cell number, rep 1 = 1.44e6; Kc cell number, rep 2 = 1.41e6; S2R+ cell number, rep 1 = 8.07e5; S2R+ cell number, rep 2 = 9.26e5; inactive. Silencing of Pits #2 came out at: Kc cell number, rep 1 = 1.49e6; Kc cell number, rep 2 = 1.63e6; S2R+ cell number, rep 1 = 1.01e6; S2R+ cell number, rep 2 = 1.14e6; inactive. Nmda1 gave Kc cell number, rep 1 = 1.44e6; Kc cell number, rep 2 = 1.56e6; S2R+ cell number, rep 1 = 1.26e6; S2R+ cell number, rep 2 = 1.32e6; inactive. mino gave Kc cell number, rep 1 = 5.29e5; S2R+ cell number, rep 1 = 8.37e5; inactive. CG12075 gave Kc cell number, rep 1 = 5.83e5; S2R+ cell number, rep 1 = 7.67e5; inactive. Depletion of CG3982 resulted in: Kc cell number, rep 1 = 1.16e6; Kc cell number, rep 2 = 1.34e6; S2R+ cell number, rep 1 = 6.84e5; S2R+ cell number, rep 2 = 8.70e5; active.

Knock-down of CG13999 came out at: Kc cell number, rep 1 = 1.63e6; Kc cell number, rep 2 = 1.52e6; S2R+ cell number, rep 1 = 1.23e6; S2R+ cell number, rep 2 = 1.33e6; inactive. egh gave Kc cell number, rep 1 = 1.52e6; Kc cell number, rep 2 = 1.56e6; S2R+ cell number, rep 1 = 1.06e6; S2R+ cell number, rep 2 = 1.18e6; inactive. Silencing of CG34423 + Mthfs came out at: Kc cell number, rep 1 = 1.56e6; Kc cell number, rep 2 = 1.66e6; S2R+ cell number, rep 1 = 1.36e6; S2R+ cell number, rep 2 = 1.36e6; inactive. For loaf, the values are Kc cell number, rep 1 = 1.37e6; Kc cell number, rep 2 = 1.51e6; S2R+ cell number, rep 1 = 1.11e6; S2R+ cell number, rep 2 = 1.23e6; inactive. CG32523 scored Kc cell number, rep 1 = 1.55e6; Kc cell number, rep 2 = 1.54e6; S2R+ cell number, rep 1 = 1.14e6; S2R+ cell number, rep 2 = 1.27e6; inactive. After knock-down of B-H1, the record shows Kc cell number, rep 1 = 1.28e6; Kc cell number, rep 2 = 1.22e6; S2R+ cell number, rep 1 = 8.06e5; S2R+ cell number, rep 2 = 9.08e5; inactive.

For Rab9Fb, the values are Kc cell number, rep 1 = 1.63e6; Kc cell number, rep 2 = 1.54e6; S2R+ cell number, rep 1 = 1.10e6; S2R+ cell number, rep 2 = 1.17e6; inactive. Against CG17760 the deposit lists Kc cell number, rep 1 = 1.65e6; Kc cell number, rep 2 = 1.98e6; S2R+ cell number, rep 1 = 1.47e6; S2R+ cell number, rep 2 = 1.62e6; inactive. CG32299 + CG32298 showed Kc cell number, rep 1 = 1.44e6; Kc cell number, rep 2 = 1.41e6; S2R+ cell number, rep 1 = 9.66e5; S2R+ cell number, rep 2 = 1.12e6; inactive. Depletion of CG2931 resulted in: Kc cell number, rep 1 = 1.50e6; Kc cell number, rep 2 = 1.78e6; S2R+ cell number, rep 1 = 1.15e6; S2R+ cell number, rep 2 = 1.26e6; inactive. With knock-down of Clamp the results were Kc cell number, rep 1 = 1.43e6; Kc cell number, rep 2 = 1.49e6; S2R+ cell number, rep 1 = 1.10e6; S2R+ cell number, rep 2 = 1.25e6; inactive. Knock-down of CG31219 came out at: Kc cell number, rep 1 = 1.20e6; Kc cell number, rep 2 = 1.15e6; S2R+ cell number, rep 1 = 1.06e6; S2R+ cell number, rep 2 = 1.18e6; inactive.

CG1662 showed Kc cell number, rep 1 = 6.47e5; S2R+ cell number, rep 1 = 9.02e5; inactive. Depletion of IntS9 came out at: Kc cell number, rep 1 = 1.53e6; Kc cell number, rep 2 = 1.58e6; S2R+ cell number, rep 1 = 1.24e6; S2R+ cell number, rep 2 = 1.27e6; inactive. Knock-down of Ube3a came out at: Kc cell number, rep 1 = 1.31e6; Kc cell number, rep 2 = 1.40e6; S2R+ cell number, rep 1 = 1.17e6; S2R+ cell number, rep 2 = 1.12e6; inactive.
